Results from PMC10825269.
Results are given in words; binding and its absence hold for the method and conditions named. In cells and extracts the contact can be indirect. Some binding calls cover weakened binding; strength is not graded here. Values belong to the substance of their own block, whether it stands above or below them.

Amino acid sequences for entries named in this document (tags omitted).
UniProt Q14839: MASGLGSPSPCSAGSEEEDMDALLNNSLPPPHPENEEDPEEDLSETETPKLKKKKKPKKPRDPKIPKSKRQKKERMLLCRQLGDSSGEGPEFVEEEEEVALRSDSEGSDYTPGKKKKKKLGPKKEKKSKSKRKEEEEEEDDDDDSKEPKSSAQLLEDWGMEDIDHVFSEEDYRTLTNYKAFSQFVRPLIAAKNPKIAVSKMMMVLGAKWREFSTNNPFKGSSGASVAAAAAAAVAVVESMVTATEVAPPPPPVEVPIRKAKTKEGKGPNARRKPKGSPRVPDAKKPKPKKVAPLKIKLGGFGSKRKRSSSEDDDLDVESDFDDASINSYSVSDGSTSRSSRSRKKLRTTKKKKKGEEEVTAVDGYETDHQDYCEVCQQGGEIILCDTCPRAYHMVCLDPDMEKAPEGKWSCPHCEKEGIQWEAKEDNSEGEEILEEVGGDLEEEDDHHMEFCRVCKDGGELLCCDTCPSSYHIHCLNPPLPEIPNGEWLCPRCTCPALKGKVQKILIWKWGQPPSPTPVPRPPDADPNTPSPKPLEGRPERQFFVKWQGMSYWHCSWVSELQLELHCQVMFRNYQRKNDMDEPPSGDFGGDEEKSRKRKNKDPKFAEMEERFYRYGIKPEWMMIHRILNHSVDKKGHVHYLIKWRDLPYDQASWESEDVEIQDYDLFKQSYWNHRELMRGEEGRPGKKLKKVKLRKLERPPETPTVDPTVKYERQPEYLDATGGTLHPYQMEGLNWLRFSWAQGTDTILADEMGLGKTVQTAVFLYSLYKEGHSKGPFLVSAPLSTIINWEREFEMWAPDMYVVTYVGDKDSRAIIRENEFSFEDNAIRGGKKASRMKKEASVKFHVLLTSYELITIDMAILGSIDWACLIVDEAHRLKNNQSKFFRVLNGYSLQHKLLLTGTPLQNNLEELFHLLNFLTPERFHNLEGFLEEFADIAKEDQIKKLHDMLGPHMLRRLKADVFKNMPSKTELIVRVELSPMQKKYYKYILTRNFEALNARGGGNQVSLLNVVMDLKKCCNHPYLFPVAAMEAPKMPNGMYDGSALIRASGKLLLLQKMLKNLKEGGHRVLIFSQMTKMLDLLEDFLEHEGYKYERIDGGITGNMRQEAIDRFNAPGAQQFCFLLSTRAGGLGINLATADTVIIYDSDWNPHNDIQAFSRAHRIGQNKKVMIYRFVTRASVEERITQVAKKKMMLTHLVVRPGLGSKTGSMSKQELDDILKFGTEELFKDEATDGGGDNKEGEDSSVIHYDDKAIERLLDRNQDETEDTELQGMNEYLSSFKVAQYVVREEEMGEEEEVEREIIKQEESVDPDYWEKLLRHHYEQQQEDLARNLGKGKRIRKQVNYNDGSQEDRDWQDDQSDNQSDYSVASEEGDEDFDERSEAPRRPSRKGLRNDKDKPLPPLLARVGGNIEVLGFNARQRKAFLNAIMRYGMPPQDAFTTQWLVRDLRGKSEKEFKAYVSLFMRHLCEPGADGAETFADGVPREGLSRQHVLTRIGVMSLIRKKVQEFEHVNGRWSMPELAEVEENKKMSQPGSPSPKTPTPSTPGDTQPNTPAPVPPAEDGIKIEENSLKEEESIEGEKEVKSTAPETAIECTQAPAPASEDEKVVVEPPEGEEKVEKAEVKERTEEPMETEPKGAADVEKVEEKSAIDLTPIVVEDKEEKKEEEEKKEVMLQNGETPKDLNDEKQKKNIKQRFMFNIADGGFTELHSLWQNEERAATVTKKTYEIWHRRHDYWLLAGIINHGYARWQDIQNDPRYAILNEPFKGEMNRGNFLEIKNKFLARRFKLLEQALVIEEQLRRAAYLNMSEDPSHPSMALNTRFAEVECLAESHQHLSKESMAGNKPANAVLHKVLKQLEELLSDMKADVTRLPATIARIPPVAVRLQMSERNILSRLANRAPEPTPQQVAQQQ
UniProt P03372: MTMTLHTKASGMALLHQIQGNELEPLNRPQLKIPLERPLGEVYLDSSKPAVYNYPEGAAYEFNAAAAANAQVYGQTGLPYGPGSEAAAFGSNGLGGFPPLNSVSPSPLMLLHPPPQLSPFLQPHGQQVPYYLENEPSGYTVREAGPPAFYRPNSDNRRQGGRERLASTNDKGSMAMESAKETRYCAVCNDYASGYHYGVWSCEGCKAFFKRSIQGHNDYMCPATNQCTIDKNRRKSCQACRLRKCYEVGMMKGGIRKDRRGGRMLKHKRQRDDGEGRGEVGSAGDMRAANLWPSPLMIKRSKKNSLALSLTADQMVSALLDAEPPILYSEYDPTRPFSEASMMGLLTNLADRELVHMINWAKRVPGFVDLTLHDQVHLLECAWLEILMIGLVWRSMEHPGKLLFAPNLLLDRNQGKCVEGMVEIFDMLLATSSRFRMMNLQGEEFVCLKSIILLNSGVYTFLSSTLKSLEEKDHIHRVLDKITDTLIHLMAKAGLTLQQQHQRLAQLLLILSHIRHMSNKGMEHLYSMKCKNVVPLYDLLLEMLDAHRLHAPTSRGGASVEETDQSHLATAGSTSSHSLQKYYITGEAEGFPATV

Assays:
[1] = molecular target: GST-CHD4 fusion protein (UniProt Q14839); experiment: pull-down; purified GST-CHD4 (bait) immobilised on the Pierce Spin Column; prey endogenous ERα from MCF7 cell lysate; WB; GST alone as control; only the target purified
[2] = molecular target: endogenous ERα (estrogen receptor alpha) of MCF7 cells (human (endogenous in MCF7)) (UniProt P03372); experiment: co-IP; endogenous proteins, cells at 90% density; Co-IP with anti-ERα then WB anti-CHD4 in MCF7 cells, or Co-IP with anti-CHD4 then WB anti-ERα in ZR-75-1 cells; control Co-IP with anti-IgG
[3] = molecular target: Flag-ERα (estrogen receptor alpha) (UniProt P03372); experiment: co-IP; HEK293T cells transfected with the indicated plasmids for 36 h; Co-IP with Flag antibody, WB with GFP antibody
[4] = molecular target: endogenous CHD4 (chromodomain helicase DNA-binding 4) of ZR-75-1 cells (human (endogenous in ZR-75-1)) (UniProt Q14839); experiment: co-IP; endogenous proteins, cells at 90% density; Co-IP with anti-ERα then WB anti-CHD4 in MCF7 cells, or Co-IP with anti-CHD4 then WB anti-ERα in ZR-75-1 cells; control Co-IP with anti-IgG
[5] = molecular target: Flag-CHD4 (chromodomain helicase DNA-binding 4) (UniProt Q14839); experiment: co-IP; HEK293T cells transfected with the indicated plasmids for 36 h; Co-IP with Flag antibody, WB with GFP antibody

binding [1]: binds
Substance: endogenous ERα (estrogen receptor alpha) of MCF7 cells (from UniProt P03372 1-595)

binding [3]: binds
Substance: GFP-CHD4 (chromodomain helicase DNA-binding 4) (from UniProt Q14839 1-1912)

binding [5]: binds
Substance: GFP-ERα (estrogen receptor alpha) (from UniProt P03372 1-595)

Continued, substance first:

Substance: endogenous CHD4 (chromodomain helicase DNA-binding 4) of MCF7 cells (from UniProt Q14839 1-1912)
binding [2]: binds

Substance: endogenous ERα (estrogen receptor alpha) of ZR-75-1 cells (from UniProt P03372 1-595)
binding [4]: binds
